Test results: patent US20180112192A1
Results are given in words; binding and its absence hold for the method and conditions named. Binding seen in cells or lysates may run through a third protein. Some results given as binding are weak or reduced against the parent protein; the word gives no strength.

The chains behind the UniProt entries cited, without tags or fusion partners. Where a name states a change or a piece, a line headed by the entry shows the natural chain unless it says otherwise.
UniProt Q9BXM7: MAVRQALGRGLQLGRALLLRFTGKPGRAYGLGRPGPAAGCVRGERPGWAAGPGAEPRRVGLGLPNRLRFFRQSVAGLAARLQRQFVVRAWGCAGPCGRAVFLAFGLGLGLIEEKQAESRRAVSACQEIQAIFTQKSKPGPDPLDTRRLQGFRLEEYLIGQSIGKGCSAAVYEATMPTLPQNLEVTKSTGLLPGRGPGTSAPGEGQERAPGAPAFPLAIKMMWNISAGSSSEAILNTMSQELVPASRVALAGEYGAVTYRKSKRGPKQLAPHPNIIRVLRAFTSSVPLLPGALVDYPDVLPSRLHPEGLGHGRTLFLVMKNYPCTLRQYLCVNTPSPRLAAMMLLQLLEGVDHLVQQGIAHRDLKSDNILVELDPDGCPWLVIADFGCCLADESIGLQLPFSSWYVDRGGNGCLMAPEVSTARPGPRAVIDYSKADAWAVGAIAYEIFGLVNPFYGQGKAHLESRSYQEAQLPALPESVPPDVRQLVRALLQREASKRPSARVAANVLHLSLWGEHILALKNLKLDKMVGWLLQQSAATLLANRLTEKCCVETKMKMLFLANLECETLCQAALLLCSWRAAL

Key:
[1] = molecular target: EGFR exon 19 deletion mutant (endogenous, PC9 cells) (UniProt P00533); experiment: co-immunoprecipitation of endogenous proteins, PC9 cells (FIG. 1B)
[2] = molecular target: EGFR, wild-type (endogenous, CL1-5 cells) (UniProt P00533); experiment: co-immunoprecipitation of endogenous proteins, CL1-5 cells (FIG. 1B)
[3] = molecular target: EGFR L858R+T790M mutant (endogenous, H1975 cells) (UniProt P00533); experiment: co-immunoprecipitation of endogenous proteins, H1975 cells (FIG. 1B)
[4] = molecular target: EGFR L858R mutant (endogenous, H3255 cells) (UniProt P00533); experiment: co-immunoprecipitation of endogenous proteins, H3255 cells (FIG. 1B)
[5] = molecular target: EGFR exon 19 deletion mutant (endogenous, PC9 cells) (UniProt P00533); experiment: co-immunoprecipitation of endogenous proteins (EGFR antibody IP, PINK1 blot), PC9 cell lysate
[6] = molecular target: EGFR, wild-type (endogenous, CL1-5 cells) (UniProt P00533); experiment: co-immunoprecipitation of endogenous proteins (EGFR antibody IP, PINK1 blot), CL1-5 cell lysate
[7] = molecular target: EGFR L858R+T790M mutant (endogenous, H1975 cells) (UniProt P00533); experiment: co-immunoprecipitation of endogenous proteins (EGFR antibody IP, PINK1 blot), H1975 cell lysate
[8] = molecular target: EGFR L858R mutant (endogenous, H3255 cells) (UniProt P00533); experiment: co-immunoprecipitation of endogenous proteins (EGFR antibody IP, PINK1 blot), H3255 cell lysate

binding [1]: binds | binding [2]: binds | binding [3]: binds | binding [4]: binds | binding [5]: binds | binding [6]: binds | binding [7]: binds | binding [8]: binds
Substance: PTEN-induced putative kinase 1 (PINK1), full-length (from UniProt Q9BXM7 78-581) (enzyme)
